Data reported in patent US7754689B2, “Finger-1 peptide analogs of the TGF-β superfamily” (Wyeth LLC, priority 2006, dated 2010).
Results are given in words; binding and its absence hold for the method and conditions named. Some results given as binding are weak or reduced against the parent protein; the word gives no strength.

Tests used:
BMP-3 [1] = biological target: T1, BMP-3 (UniProt P12645); assay: affinity chromatography, immobilised BMP-12, load in 1.2 M NaCl
T1 sequence (looked up): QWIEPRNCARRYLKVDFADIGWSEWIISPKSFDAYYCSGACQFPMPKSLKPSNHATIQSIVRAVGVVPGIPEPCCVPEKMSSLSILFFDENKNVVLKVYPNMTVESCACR

BMP-12 [2] = biological target: T2, BMP-12 (UniProt Q7Z4P5 322-450, limits assumed); assay: affinity chromatography, immobilised BMP-12
T2 construct: also called BMP12/GDF7
T2 sequence (looked up): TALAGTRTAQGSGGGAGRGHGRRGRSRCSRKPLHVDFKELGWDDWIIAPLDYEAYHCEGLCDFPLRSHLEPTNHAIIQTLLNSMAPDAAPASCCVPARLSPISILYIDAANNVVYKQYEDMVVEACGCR

BMP-3 [3] = biological target: T1, BMP-3; assay: HPLC column of BMP affinity resin, loaded with BMP-3
BMP-12 [4] = biological target: T2, BMP-12; assay: HPLC column of BMP affinity resin, loaded with BMP-12
BMP-12 [5] = biological target: T2, BMP-12; assay: affinity chromatography, immobilised BMP-2

Measured: binding

B1: BMP-12 (ligand, UniProt Q7Z4P5 322-450, looked up)
chain: TALAGTRTAQGSGGGAGRGHGRRGRSRCSRKPLHVDFKELGWDDWIIAPLDYEAYHCEGLCDFPLRSHLEPTNHAIIQTLLNSMAPDAAPASCCVPARLSPISILYIDAANNVVYKQYEDMVVEACGCR
not listed: BMP-12 [5]
binds: all other assays above

B2: BMP-2 (ligand, UniProt P12643 283-396, looked up)
chain: QAKHKQRKRLKSSCKRHPLYVDFSDVGWNDWIVAPPGYHAFYCHGECPFPLADHLNSTNHAIVQTLVNSVNSKIPKACCVPTELSAISMLYLDENEKVVLKNYQDMVVEGCGCR
binds: BMP-12 [5] | BMP-12 [4]
